Data reported in patent publication US20130053541A1, “METHODS FOR DISCOVERING MOLECULES THAT BIND TO PROTEINS” (LYNNTECH, INC., priority 2011, published 2013).
These are yes or no findings as the source states them, for the method shown. Some results given as binding are weak or reduced against the parent protein; the word gives no strength.

T1: native human ESRRG protein (Estrogen-receptor related receptor gamma) (human) (UniProt P62508)
T1 sequence (looked up): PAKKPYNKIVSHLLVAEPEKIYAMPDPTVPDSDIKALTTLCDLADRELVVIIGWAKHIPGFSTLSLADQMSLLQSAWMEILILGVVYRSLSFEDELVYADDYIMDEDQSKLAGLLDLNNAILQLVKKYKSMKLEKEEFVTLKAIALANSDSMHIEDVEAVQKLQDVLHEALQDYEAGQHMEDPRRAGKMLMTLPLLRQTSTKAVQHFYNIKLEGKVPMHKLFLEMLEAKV


Molecular target: T1, native human ESRRG protein (Estrogen-receptor related receptor gamma) (human)
Assay: TR-FRET ESRRG-ligand displacement assay, PGC1α as displaced co-activator

| binding | Binder |
| --- | --- |
| binds | FYNMYLLN (N-terminal acetyl group) |
| binds | NSLLKHLL (N-terminal acetyl group) |
| binds | HDNMYLNE (N-terminal acetyl group) |
